# Screening data, single-dose tests

Results are given as percent effect. How 0% and 100% were set is not recorded. Most values in the screen are low, and negative values occur. Compounds were drawn at random from those tested, without regard to their results.

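Growth of Mycobacterium tuberculosis over 4 days (cholesterol / DPPC medium with tyloxapol); the read-out is not stated. Compounds at 500 µM. Direction is inferred from retests: higher values go with more growth inhibition. Of about 18,000 compounds tested this way, about 900 (5%) reached 50% or more in at least one test.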

| Compound | percent effect |
|---|---|
| `Cc1cc(CNC(=O)CSc2ccncc2)on1` | -3.336 |
| `NC(=O)c1cc(S(=O)(=O)NCCc2ccccc2)cs1` | 44.03 |
| `CCCN(C(=O)COC)C1CCS(=O)(=O)C1` (stereo not given) | -4.462 |
| `CCN(Cc1ccc(F)c(F)c1)[C@H]1COC[C@@H]1O` | -0.3851 |
| `CC(C)C(C)(N)CNC(=O)OC(C)(C)C` (stereo not given) | 9.975 |
| `CN(C)C(=O)Cc1ccc(NC(=O)C2CC2)cc1` | 22.58 |
| `CC(C)OCC(O)CN1CCN(C(C)C)CC1` (stereo not given) | -18.72 |
| `Cc1cc(C(=O)N2CC(=O)Nc3ccccc32)no1` | 4.841 |
| `CCN(CCC#N)C(=O)CNc1cc(F)ccc1F` | 8.246 |
| `N#Cc1c(F)cccc1NCCN` | 17.63 |
| `CN(C)C(=O)COC(=O)c1ccc2ccccc2n1` | 28.33 |
| `CN(C)C(=O)c1cccc(CN)c1` | 13.44 |
| `O=C(NCc1cscn1)N1CCOCC1` | -7.573 |
| `O[C@H]1C[C@@H](N2CCCC2)C1` | -4.288 |
| `Cc1nc(C(=O)NCCN2CCCC2)c(C)s1` | 17.48 |
| `CCC1c2nccn2CCCN1C(=O)c1ocnc1C` (stereo not given) | 9.199 |
| `CC(CNS(N)(=O)=O)Cc1cccs1` (stereo not given) | 40.79 |
| `NC(=O)C1(NC(=O)Nc2cccc(Br)c2)CC1` | 5.497 |
| `NCc1cccc2c1OCCO2` | 35.79 |
| `CNC(=O)N1CCC(Oc2cccnc2)C1` (stereo not given) | -11.18 |
| `CN(CCc1ccccn1)CC(=O)NCc1ccco1` | 22.48 |
| `CCn1ncnc1CSCC(=O)Nc1nc(C)cs1` | 7.82 |
| `CN(C)C1CN(S(=O)(=O)Cc2cccc(F)c2)C1` | 9.727 |
| `CNC1CCCOC1` (stereo not given) | -21.99 |
| `O=C(NC1CC1)c1cccc(CNc2ccccn2)c1` | 50.34 |
| `COCCN1CCN(Cc2cc(C(C)(C)C)[nH]n2)CC1` | 9.882 |
| `CCOC(=O)NC1CCC(NC(=O)c2ccco2)CC1` (stereo not given) | 17.69 |
| `CCC(NC(=O)Cc1ccccn1)c1nc(C)c[nH]1` (stereo not given) | -3.437 |
| `CC(C)(C)C(=O)NC1CCCC1` | -3.407 |
| `CC1CCC(NC(=O)c2ccc(S(N)(=O)=O)cc2)CC1` (stereo not given) | -2.359 |
| `O=C(NCCCn1ccnc1)c1cn2ccsc2n1` | 4.074 |
| `Cn1ccnc1C(NC(=O)C1CC1)c1cccc(F)c1` (stereo not given) | 7.853 |
| `CN1CCN(C(=O)C2(c3ccccc3F)CC2)CC1=O` | -5.758 |
| `Cn1cc(-c2csc(N)n2)cn1` | -6.027 |
| `CN(C(=O)c1ccc(Cl)cc1)c1nncs1` | -10.02 |
| `CCOc1cc(C(=O)NCCCOC(C)C)ccn1` | 72.62 |
| `Cc1cc(NC(=O)CN2CCCCC2)no1` | 4.573 |
| `CC(=O)NC1C(=O)N(C(C)C)c2ccc(C)cc21` (stereo not given) | 15.61 |
| `CC(=O)Nc1nnc(C2CCCN2)o1` (stereo not given) | -13.4 |
| `COC1CCN(CC(=O)N2CCCCC2C)CC1` (stereo not given) | -5.571 |
| `CC(O)CNC(=O)c1ccc(-c2ccccc2F)o1` (stereo not given) | 29.68 |
| `CNS(=O)(=O)CC1CCCN1c1ncc(Br)cn1` (stereo not given) | 38.56 |
| `CCC(CO)N1CCN(c2cccc(C)n2)CC1` (stereo not given) | 11.57 |
| `CS(=O)(=O)NCC(=O)NC(C#N)c1ccc(Cl)c(Cl)c1` (stereo not given) | -7.341 |
| `Cc1nscc1C(=O)OCCCn1cccn1` | 32.43 |
| `Cc1c(S(=O)(=O)N2CCC(N)CC2)cnn1C` | 8.975 |
| `Cc1nc(C(C)C)ccc1CO` | 9.225 |
| `COC(=O)c1ccn2cncc2c1` | -15.19 |
| `CCOc1ncccc1CNc1cn[nH]c(=O)c1Cl` | 16.38 |
| `CC(=O)N(C)Cc1nc2ccccc2[nH]1` | -6.71 |
| `CCc1nnsc1C(=O)Nc1cccc(C(N)=O)c1` | 40.99 |
| `N#CCCNC1CCOCC1` | 5.363 |
| `CSCC(=O)N1CCC(CCC(=O)N2CCCC2)CC1` | -0.9851 |
| `Cn1ccc(NC(=O)c2ccccc2)n1` | 6.77 |
| `Cc1cnccc1NCCn1ccnc1-c1ncc[nH]1` | 4.565 |
| `COc1ccc(OC)c(C(O)CN2CCNC(=O)C2)c1` (stereo not given) | 15.42 |
| `COc1cc(OC)cc(N2CCC(N)CC2)c1` | -3.646 |
| `Cn1cnc(S(=O)(=O)NCC(N)c2ccccc2)c1Cl` (stereo not given) | -1.891 |
| `CCc1ccc(C(=O)CSc2nnc(N)[nH]2)cc1` | 69.94 |
| `CC1CCN(CCNS(C)(=O)=O)CC1` | 3.94 |
| `CCCNC(=O)N1CCCCC1C1OCCO1` (stereo not given) | 28.89 |
| `CS(=O)(=O)CCn1c(CCCO)nc2ccccc21` | 11.57 |
| `NCc1cc(Cl)c2c(c1)OCO2` | 3.899 |
| `CC1CC(=O)N(CCc2ccc(F)c(F)c2)C1=O` (stereo not given) | 28.22 |
| `FC(F)(F)Cn1cccn1` | -17.41 |
| `CCOC(=O)Nc1ccc(S(=O)(=O)NC2CC2)cc1` | 7.219 |
| `CCC(C)(N)c1nc(COC)cc(=O)[nH]1` (stereo not given) | 2.218 |
| `NC(CCO)C1CCCCC1` (stereo not given) | -5.906 |
| `N#Cc1ccc(CN)cc1F` | 27.78 |
| `CSCc1noc(CN2CCN(C3CCNC3)CC2)n1` (stereo not given) | -6.871 |
| `Cc1ccc(S(=O)(=O)N(C)C(C)CN)cc1` (stereo not given) | 15.6 |
| `O=C(COCC(F)(F)F)NC1CCc2nccn2C1` (stereo not given) | -10.77 |
| `COc1ccc(C(=O)Nn2cnnc2)cc1OC` | 4.222 |

The last 9 entries again:

{"compound": "FC(F)(F)Cn1cccn1", "percent effect": -17.41}
{"compound": "CCOC(=O)Nc1ccc(S(=O)(=O)NC2CC2)cc1", "percent effect": 7.219}
{"compound": "CCC(C)(N)c1nc(COC)cc(=O)[nH]1", "stereo": "stereo not given", "percent effect": 2.218}
{"compound": "NC(CCO)C1CCCCC1", "stereo": "stereo not given", "percent effect": -5.906}
{"compound": "N#Cc1ccc(CN)cc1F", "percent effect": 27.78}
{"compound": "CSCc1noc(CN2CCN(C3CCNC3)CC2)n1", "stereo": "stereo not given", "percent effect": -6.871}
{"compound": "Cc1ccc(S(=O)(=O)N(C)C(C)CN)cc1", "stereo": "stereo not given", "percent effect": 15.6}
{"compound": "O=C(COCC(F)(F)F)NC1CCc2nccn2C1", "stereo": "stereo not given", "percent effect": -10.77}
{"compound": "COc1ccc(C(=O)Nn2cnnc2)cc1OC", "percent effect": 4.222}

Measurements from “University of Dundee, Small-Polar-MMV Screening Library” (2021), ChEMBL document CHEMBL3988442.